Results on three substances are retold here after patent EP2369000A1, “Production of peptides and proteins by accumulation in mitochondria” (3T-Science, S.L., priority 2010, dated 2011).

The data set deals with mitochondrial fraction. Nature of the data set: Enrichment of target protein in the mitochondrial fraction by differential centrifugation (Western blot, ImageJ). The class given is cell-based, Kluyveromyces lactis. A general note: A western blot detects proteins with antibodies after separation by electrophoresis.
Setting [1] is: P1, pellet from the 1500rpm centrifugation.
Where [2] appears, read: P2, pellet from the 13,000rpm centrifugation (mitochondrial fraction).
The mark [3] stands for this setting: S1, supernatant from the 1500rpm centrifugation.
Setting [4] is: S2, supernatant from the 13,000rpm centrifugation.

Regarding “MIS-VII: synthetic mitochondrial targeting sequence (MTS), SEQ ID NO: 2, containing the core RRRA (RLRRRAARSLARSAARR)”, the “Ratio (With respect to total)” value by setting is: under setting [1], 0,65; under setting [2], 1,47; under setting [3], 1,16; under setting [4], 1,08; (TOTAL) 1,00.
With “MIS-XIV: synthetic mitochondrial targeting sequence (MTS), SEQ ID NO: 4, containing the core RRRA (RARRRARR)”, the “Ratio (With respect to total)” value is, setting by setting: under setting [1], 0,72; under setting [2], 1,44; under setting [3], 1,00; under setting [4], 1,01; (TOTAL) 1,00.
On to “MIS-XIII: synthetic mitochondrial targeting sequence (MTS), SEQ ID NO: 3, containing the core RRRA (RAARRRAARR)”, for which the “Ratio (With respect to total)” value by setting is: under setting [1], 0,77; under setting [2], 1,90; under setting [3], 1,19; under setting [4], 1,07; (TOTAL) 1,00.
